Results as given in patent publication US20200223894A1 (AUCKLAND UNISERVICES LIMITED, priority 2017, published 2020).
Where a sequence shows no end group, the ends are not given.

Assay: general procedure: Fmoc solid-phase peptide synthesis; HBTU/DIPEA
Settings: whole synthesis, HCl (TFA removed by lyophilisation from 10 mM hydrochloric acid); for final HPLC purity: analytical HPLC at 214 nm (Dionex Ultimate 3000, Zorbax Eclipse XDB-C8)

| Sequence | isolated yield | final HPLC purity | final HPLC purity (run 1) | final HPLC purity (run 2) |
| --- | --- | --- | --- | --- |
| KGTCAGWMA | 24.0% | > 95% | – | – |
| YGRKKKRRQQRRRDTGGTCY | 14.0% | > 95% | – | – |
| YGRKKKRRQQRRRGTCY | 16.2% | – | > 95% | >95% |
| YGRKKRRQQRRRKGTCAGWMA | 18.3% | – | > 95% | >95% |
